# Assay results as given in the supplement of paper PMC12819154, “High-throughput peptide-centric local stability assay extends protein–ligand identification to membrane proteins, tissues and bacteria” (Nature Structural & Molecular Biology, 2025).
# By UniProt entry, the sequences of proteins in these tests, tags left out. Where a name states a change or a piece, a line headed by the entry shows the natural chain unless it says otherwise.
# UniProt Q9CWX9: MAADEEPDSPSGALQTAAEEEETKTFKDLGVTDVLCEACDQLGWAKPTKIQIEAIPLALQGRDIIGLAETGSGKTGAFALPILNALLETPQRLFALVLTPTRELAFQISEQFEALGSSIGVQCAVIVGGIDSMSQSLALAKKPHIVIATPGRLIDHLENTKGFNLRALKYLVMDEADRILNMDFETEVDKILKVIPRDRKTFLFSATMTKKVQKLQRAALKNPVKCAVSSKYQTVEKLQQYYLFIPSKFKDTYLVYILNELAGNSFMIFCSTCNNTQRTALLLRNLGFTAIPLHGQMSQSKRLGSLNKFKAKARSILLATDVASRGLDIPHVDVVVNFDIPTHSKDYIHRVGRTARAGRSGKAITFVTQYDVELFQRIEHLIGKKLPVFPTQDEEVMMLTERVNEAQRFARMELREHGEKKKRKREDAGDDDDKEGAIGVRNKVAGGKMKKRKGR
# UniProt Q9CWW6, whole entry: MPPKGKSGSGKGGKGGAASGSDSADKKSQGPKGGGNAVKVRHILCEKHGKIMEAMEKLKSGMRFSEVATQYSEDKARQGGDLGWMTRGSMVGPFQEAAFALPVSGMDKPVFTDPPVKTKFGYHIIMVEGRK
# UniProt Q9D0L8, whole entry: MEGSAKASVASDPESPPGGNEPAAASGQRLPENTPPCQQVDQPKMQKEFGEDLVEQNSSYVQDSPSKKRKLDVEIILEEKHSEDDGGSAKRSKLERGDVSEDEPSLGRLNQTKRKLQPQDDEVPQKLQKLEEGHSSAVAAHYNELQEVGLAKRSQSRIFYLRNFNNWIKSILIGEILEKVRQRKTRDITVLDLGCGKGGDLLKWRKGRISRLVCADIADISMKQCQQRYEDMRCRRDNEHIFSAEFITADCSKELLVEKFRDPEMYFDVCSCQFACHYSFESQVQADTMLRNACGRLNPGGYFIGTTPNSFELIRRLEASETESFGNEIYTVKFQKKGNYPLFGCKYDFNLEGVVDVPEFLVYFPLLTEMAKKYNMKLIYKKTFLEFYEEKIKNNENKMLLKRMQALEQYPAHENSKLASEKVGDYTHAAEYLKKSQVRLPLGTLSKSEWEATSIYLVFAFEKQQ
# UniProt Q9D0V8: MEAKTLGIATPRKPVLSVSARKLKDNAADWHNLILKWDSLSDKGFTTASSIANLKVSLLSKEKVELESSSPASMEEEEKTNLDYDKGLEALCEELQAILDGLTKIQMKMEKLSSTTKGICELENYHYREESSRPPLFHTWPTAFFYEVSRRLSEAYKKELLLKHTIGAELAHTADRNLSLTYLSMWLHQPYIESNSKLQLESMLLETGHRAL
# UniProt Q9D051: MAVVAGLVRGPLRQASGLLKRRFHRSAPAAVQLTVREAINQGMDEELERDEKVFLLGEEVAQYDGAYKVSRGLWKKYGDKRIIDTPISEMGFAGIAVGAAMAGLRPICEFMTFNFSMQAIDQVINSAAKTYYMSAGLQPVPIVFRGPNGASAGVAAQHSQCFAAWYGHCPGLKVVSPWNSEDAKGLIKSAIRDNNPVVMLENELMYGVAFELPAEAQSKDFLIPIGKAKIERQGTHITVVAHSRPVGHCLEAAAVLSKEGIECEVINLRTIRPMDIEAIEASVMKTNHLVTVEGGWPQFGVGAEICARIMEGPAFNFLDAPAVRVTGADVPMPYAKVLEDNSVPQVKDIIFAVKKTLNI
# UniProt Q9CWW7, whole entry: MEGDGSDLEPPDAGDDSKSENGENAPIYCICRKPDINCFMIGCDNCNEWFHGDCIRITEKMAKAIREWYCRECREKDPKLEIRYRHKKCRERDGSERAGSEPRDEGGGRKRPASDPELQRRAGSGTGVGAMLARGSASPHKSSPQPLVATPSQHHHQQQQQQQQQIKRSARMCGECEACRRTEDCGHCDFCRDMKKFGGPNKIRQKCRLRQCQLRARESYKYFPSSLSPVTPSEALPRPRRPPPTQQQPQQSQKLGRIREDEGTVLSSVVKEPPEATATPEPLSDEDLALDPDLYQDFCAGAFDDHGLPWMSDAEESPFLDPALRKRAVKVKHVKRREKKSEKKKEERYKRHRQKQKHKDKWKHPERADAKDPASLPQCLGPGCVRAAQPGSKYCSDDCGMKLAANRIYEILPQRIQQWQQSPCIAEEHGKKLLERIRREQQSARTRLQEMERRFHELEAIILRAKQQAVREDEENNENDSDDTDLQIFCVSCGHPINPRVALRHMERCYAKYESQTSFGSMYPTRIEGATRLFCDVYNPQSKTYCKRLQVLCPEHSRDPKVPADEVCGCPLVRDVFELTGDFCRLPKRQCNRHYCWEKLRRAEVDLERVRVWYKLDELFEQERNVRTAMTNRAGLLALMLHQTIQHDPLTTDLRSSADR
# UniProt Q9CZD5: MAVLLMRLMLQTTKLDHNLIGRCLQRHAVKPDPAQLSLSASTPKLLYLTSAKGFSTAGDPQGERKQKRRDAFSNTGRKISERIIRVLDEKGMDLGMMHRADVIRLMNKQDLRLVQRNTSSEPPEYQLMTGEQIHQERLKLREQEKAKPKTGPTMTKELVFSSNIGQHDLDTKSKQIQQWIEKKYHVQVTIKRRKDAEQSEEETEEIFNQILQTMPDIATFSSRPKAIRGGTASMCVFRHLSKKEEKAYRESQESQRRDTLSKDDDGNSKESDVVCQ
# UniProt Q9CX86: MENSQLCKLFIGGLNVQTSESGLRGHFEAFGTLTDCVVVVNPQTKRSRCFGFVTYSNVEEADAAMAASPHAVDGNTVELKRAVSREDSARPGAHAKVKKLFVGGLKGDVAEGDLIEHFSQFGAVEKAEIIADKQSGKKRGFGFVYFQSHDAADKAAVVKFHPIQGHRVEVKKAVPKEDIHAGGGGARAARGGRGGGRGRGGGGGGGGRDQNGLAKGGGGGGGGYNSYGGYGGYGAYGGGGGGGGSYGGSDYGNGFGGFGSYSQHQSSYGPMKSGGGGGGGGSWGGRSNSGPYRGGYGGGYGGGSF
# UniProt Q9D0Z3: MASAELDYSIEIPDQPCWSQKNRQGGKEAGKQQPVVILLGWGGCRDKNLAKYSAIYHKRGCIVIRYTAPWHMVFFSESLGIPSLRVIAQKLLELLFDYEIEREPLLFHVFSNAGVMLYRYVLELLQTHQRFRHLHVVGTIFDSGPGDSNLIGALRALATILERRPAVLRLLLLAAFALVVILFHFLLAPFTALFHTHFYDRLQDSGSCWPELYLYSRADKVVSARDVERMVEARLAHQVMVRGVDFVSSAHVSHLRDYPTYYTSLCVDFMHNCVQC
# UniProt Q9CXI5: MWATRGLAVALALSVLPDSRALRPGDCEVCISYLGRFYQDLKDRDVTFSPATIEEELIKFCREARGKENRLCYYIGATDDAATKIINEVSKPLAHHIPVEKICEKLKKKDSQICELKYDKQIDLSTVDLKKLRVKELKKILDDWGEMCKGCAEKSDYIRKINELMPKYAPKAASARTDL
# UniProt Q9CZ57: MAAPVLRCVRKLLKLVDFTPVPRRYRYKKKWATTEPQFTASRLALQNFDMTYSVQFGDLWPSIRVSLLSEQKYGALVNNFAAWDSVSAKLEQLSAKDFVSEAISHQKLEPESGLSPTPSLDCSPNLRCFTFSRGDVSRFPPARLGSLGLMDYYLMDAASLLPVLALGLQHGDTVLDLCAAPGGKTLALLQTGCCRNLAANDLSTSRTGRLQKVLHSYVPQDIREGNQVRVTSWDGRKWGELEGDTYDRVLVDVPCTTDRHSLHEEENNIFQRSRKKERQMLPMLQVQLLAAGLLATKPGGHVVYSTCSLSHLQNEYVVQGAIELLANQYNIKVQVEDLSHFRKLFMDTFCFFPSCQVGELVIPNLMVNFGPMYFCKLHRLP
# The list shows a part of the results. Most entries show no effect beyond the scatter of the controls.
# Compound: CN[C@@H]1C[C@H]2O[C@@](C)([C@@H]1OC)n1c3ccccc3c3c4c(c5c6ccccc6n2c5c31)C(=O)NC4 [staurosporine]
# Test: log2 fold change of tryptic peptide abundance, ligand vs vehicle (limited proteolysis) (log2 ratio); higher = more trypsin-susceptible (destabilized)
# Details: ligand concentration: 20 uM; sample: mouse liver crude lysate; replicate design: treated separately
row,Target,log2 fold change
1,"UniProt Q9CWX9 (peptide sequence: REDAGDDDDKEGAIGVR, peptide start residue: 425)",-0.386
2,"UniProt Q9CWW6 (peptide sequence: GGAASGSDSADKK, peptide start residue: 15)",-0.143
3,"UniProt Q9D0L8 (peptide sequence: LVCADIADISMK, peptide start residue: 212)",0.308
4,"UniProt Q9D0V8 (peptide sequence: GICELENYHYR, peptide start residue: 118)",-0.888
5,"UniProt Q9D051 (peptide sequence: DIIFAVKK, peptide start residue: 348)",0.0897
6,"UniProt Q9CWW7 (peptide sequence: RPPPTQQQPQQSQK, peptide start residue: 241)",-0.294
7,"UniProt Q9CZD5 (peptide sequence: DAFSNTGRK, peptide start residue: 70)",-0.363
8,"UniProt Q9CX86 (peptide sequence: AVSREDSARPGAHAK, peptide start residue: 82)",-1.02
9,"UniProt Q9D0Z3 (peptide sequence: LAHQVMVR, peptide start residue: 235)",0.164
10,"UniProt Q9CXI5 (peptide sequence: KINELMPK, peptide start residue: 160)",0.142
11,"UniProt Q9CZ57 (peptide sequence: TLALLQTGCCR, peptide start residue: 185)",0.342

# Retrieved one by one from the list above:
row,Target,log2 fold change
8,"UniProt Q9CX86 (peptide sequence: AVSREDSARPGAHAK, peptide start residue: 82)",-1.02
1,"UniProt Q9CWX9 (peptide sequence: REDAGDDDDKEGAIGVR, peptide start residue: 425)",-0.386
